From article doi:10.1101/2024.08.01.605889 come the findings set out here.

Sequences of proteins named here, by UniProt entry; tags and fusion partners are left off.
UniProt P14635: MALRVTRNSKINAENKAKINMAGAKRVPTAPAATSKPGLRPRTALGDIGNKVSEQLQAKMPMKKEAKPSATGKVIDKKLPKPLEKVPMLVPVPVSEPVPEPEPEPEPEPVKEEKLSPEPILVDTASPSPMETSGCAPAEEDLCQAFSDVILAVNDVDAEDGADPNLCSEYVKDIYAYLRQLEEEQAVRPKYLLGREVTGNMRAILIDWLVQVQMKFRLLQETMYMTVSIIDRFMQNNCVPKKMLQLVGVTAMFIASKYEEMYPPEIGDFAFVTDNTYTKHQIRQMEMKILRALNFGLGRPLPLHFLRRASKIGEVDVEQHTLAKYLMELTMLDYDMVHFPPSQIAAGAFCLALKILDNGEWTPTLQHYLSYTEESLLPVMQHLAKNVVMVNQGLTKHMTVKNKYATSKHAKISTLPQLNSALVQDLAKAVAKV

Results are given in words; binding and its absence hold for the method and conditions named. Binding seen in cells or lysates may run through a third protein. Some entries that bind do so weakly or less than the wild type.

This assay addresses cyclin B1 (human (endogenous in NCI-H1048 and NCI-H446)) (UniProt P14635). The experiment in a line: co-IP.

B1: Myt1 (enzyme, UniProt Q99640 1-499)
chain: MLERPPALAMPMPTEGTPPPLSGTPIPVPAYFRHAEPGFSLKRPRGLSRSLPPPPPAKGSIPISRLFPPRTPGWHQLQPRRVSFRGEASETLQSPGYDPSRPESFFQQSFQRLSRLGHGSYGEVFKVRSKEDGRLYAVKRSMSPFRGPKDRARKLAEVGSHEKVGQHPCCVRLEQAWEEGGILYLQTELCGPSLQQHCEAWGASLPEAQVWGYLRDTLLALAHLHSQGLVHLDVKPANIFLGPRGRCKLGDFGLLVELGTAGAGEVQEGDPRYMAPELLQGSYGTAADVFSLGLTILEVACNMELPHGGEGWQQLRQGYLPPEFTAGLSSELRSVLVMMLEPDPKLRATAEALLALPVLRQPRAWGVLWCMAAEALSRGWALWQALLALLCWLWHGLAHPASWLQPLGPPATPPGSPPCSLLLDSSLSSNWDDDSLGPSLSPEAVLARTVGSTSTPRSRCTPRDALDLSDINSEPPRGSFPSFEPRNLLSLFEDTLDPT
With B1, the binding entry is reported as “binds”.
